Results deposited as PubChem BioAssay AID1259405 (NCATS, 2018).
This is an unselected part of about 50,000 reagents. Over the whole deposit, about 4,000 (8%) are marked active. 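Mouse siRNA library applied to hamster cells; one well for each siRNA.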 The numbers tell different reagents against one gene apart.

Purpose: 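Mouse-designed siRNAs used to find CHO productivity engineering targets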 (primary screen)
Cell system: Chinese hamster CHO-K1 ovary cells with stable secreted eGFP expression
Reagent: single siRNA against mouse genes, 0.8 pmol siRNA per well (2 µl of 400 nM stock)
Time to read-out: 3 days
Detection: 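Per-well intracellular GFP measured by laser scanning cytometry, plus viability from ATP luminescence, each relative to plate median of non-targeting control wells, in %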
Scale: GFP, % of control: higher = more GFP per well, higher productivity; viability (ATP), % of control: higher = more viable cells (more ATP)
Call rule: 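a knock-down is called active if GFP reaches 120% or more of non-targeting control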

| Target gene | reagent | GFP, % of control | viability (ATP), % of control | Outcome |
| --- | --- | --- | --- | --- |
| Adra1a | 1 | 94.5 | 67.8 | inactive |
| Adra1a | 2 | 69.9 | 79.1 | inactive |
| Adra1a | 3 | 42.3 | 51 | inactive |
| Tssk2 | 1 | 88 | 71.2 | inactive |
| Tia1 | 1 | 71.2 | 89 | inactive |
| Tia1 | 2 | 85.9 | 80.4 | inactive |
| Tia1 | 3 | 130 | 56.7 | active |
| Foxf1 | 1 | 61.8 | 105 | inactive |
| Foxf1 | 2 | 75.2 | 97 | inactive |
| Msantd2 | 1 | 120 | 122 | inactive |
| Msantd2 | 2 | 56.9 | 69.5 | inactive |
| Msantd2 | 3 | 141 | 128 | active |
| Rnf141 | 1 | 104 | 82.7 | inactive |
| Rnf141 | 2 | 54.4 | 69.1 | inactive |
| Rnf141 | 3 | 83.6 | 86.2 | inactive |

4 neighbouring reagents already listed:
| Target gene | reagent | GFP, % of control | viability (ATP), % of control | Outcome |
| --- | --- | --- | --- | --- |
| Tia1 | 1 | 71.2 | 89 | inactive |
| Tia1 | 2 | 85.9 | 80.4 | inactive |
| Tia1 | 3 | 130 | 56.7 | active |
| Foxf1 | 1 | 61.8 | 105 | inactive |

Next results follow:
| Target gene | reagent | GFP, % of control | viability (ATP), % of control | Outcome |
| --- | --- | --- | --- | --- |
| Dach1 | 1 | 56.7 | 64.8 | inactive |
| Dach1 | 2 | 48.2 | 59.7 | inactive |
| Dach1 | 3 | 111 | 92.8 | inactive |
| Ydjc | 1 | 65.8 | 55.2 | inactive |
| Ydjc | 2 | 35.3 | 22.4 | inactive |
| Ydjc | 3 | 89.4 | 89.5 | inactive |
| Adck5 | 1 | 74.2 | 82.5 | inactive |
| Adck5 | 2 | 74.8 | 72 | inactive |
| Adck5 | 3 | 103 | 142 | inactive |
| Ghrhr | 1 | 61.6 | 55.7 | inactive |
| Ghrhr | 2 | 98.7 | 61.6 | inactive |
| Ghrhr | 3 | 81.8 | 90.3 | inactive |
| Ceacam14 | 1 | 78.4 | 63.6 | inactive |
| Ceacam14 | 2 | 81.8 | 59.1 | inactive |
| Ceacam14 | 3 | 97.8 | 89.7 | inactive |
| Inka2 | 1 | 36.4 | 28.8 | inactive |
| Inka2 | 2 | 96.9 | 111 | inactive |
| Inka2 | 3 | 119 | 134 | inactive |
| Trpa1 | 1 | 84.9 | 46 | inactive |
| Trpa1 | 2 | 86.5 | 88 | inactive |
| Trpa1 | 3 | 130 | 75 | active |
